Data on one substance can be found in patent publication US20030180735A1, “Screening method” (priority 1999, published 2003).

For the data set, the system named is primary human neutrophils. Put plainly: Neutrophil gene expression, Incyte LifeGrid microarray. It counts as cell-based. The conditions noted are these: GM-CSF (50U). As for the experimental part:
Primary human neutrophils are isolated and purified from peripheral blood of normal healthy individuals. Neutrophils are resuspended in serum containing culture medium together with GM-CSF (50U) at a concentration of 2×10^6/ml, and cultured for 0 h (control), 2 h, 4 h and 6 h at 37° C. After these times, total cellular RNA is extracted and this used as the starting material for analysis of gene expression changes.
Primary human neutrophils are isolated and purified from peripheral blood of normal healthy individuals. Neutrophils are resuspended in serum containing culture medium together with GM-CSF (50U) at a concentration of 2×10^6/ml, and cultured for 0 h (control), 2 h, 4 h and 6 h at 37° C. After these times, total cellular RNA is extracted and this used as the starting material for analysis of gene expression changes using the Incyte “LifeGrid” microarray. Following cluster analysis, a cluster of genes are identified that contained several genes involved in neutrophil survival and whose transcription is up—regulated upon GM-CSF treatment. This cluster, which included BcI2-A1 (a ‘known’ antiapoptotic neutrophil BCL2 family member) is termed the ‘survival’ cluster (See FIG. 14). Among these genes, one group that could be clearly identified are those genes whose protein products are involved in protecting the cell against an increased oxidative environment (FIG. 14). […] Since all these gene products are attenuators of the oxidative cellular response it is indicative that GM-CSF protects the cell by reducing the harmful effects of reactive oxygen species. The corollary therefore is that spontaneous apoptosis must be due to an uncontrolled oxidative environment within the cell. Furthermore, this reaffirms that the neutrophils response to reactive oxidative species is […] of the glutathione system.
Methodology is as described by manufacturer, for Human LifeGrid™ arrays. Essentially, total cellular RNA (1 μg to 20 μg) or polyA+ mRNA (100 ng to 5 μg) is incubated with an oligo (dT) primer. Primed RNA is reverse transcribed to first stand cDNA in a reaction containing M-MLV reverse transcriptase (RT; alternatively Superscript II is used (Life Sciences)), RT buffer, dNTPs and [α-^33P] dCTP (2000-4000 Ci/mmol) at 42° C. for 1 to 5 h.
Methodology is as described by manufacturer, for Human LifeGrid™ arrays.

In the case of “GM-CSF: well-characterised neutrophil growth/survival factor (cytokine)”, the “number of genes changing expression >2-fold vs control 0 h” value (2-6 h, of ˜8000 genes on filter) is on record as “greater than 360 genes”. Moreover, the “number of genes down-regulated” value (2 h post-isolation) is approximately 230 genes. Further, the “number of genes up-regulated” value runs as follows: (2 h post-isolation) 16 genes; (4 h post-isolation) 65 genes; (6 h post-isolation) 155 genes.
